Results taken from PubChem BioAssay AID2685 (National Center for Advancing Translational Sciences (NCATS), 2010).
Among all 320,000 compounds or so, about 2,100 (0.66%) were called active. Inconclusive means that the source gave no clear call. Such entries were picked first, then a sample of the others. Calls follow the shape of the dose curve; as a rule, active = well fitted inhibition curve with a large enough effect in the signal ratio, with a control signal flat (not every such curve was filed as active); inconclusive = small, poorly fitted or top-dose-only effect, or effect the other way, or a change in a side signal; inactive = flat fitted curve, though single readings scatter; the % refers to the signal ratio. Potencies beside an inconclusive call are fits to weak or partial responses and may not hold up.

Assay: qHTS Assay for Lipid Storage Modulators in Drosophila S3 Cells
Conditions: BODIPY lipid droplet fluorescence, 18-24 h, cells fed with added oleic acid; lipid storage change, negative = inhibition: at 46.1 µM (top of the series) unless noted
Outline: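 Laser-scanning cytometry quantifies lipid droplet accumulation (500–530 nm total intensity; droplet/cell object ratio) in oleic acid-fed (400 uM added) Drosophila S3 cells treated with a concentration series. 20 uM Triacsin C defined 100% inhibition.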
% is scaled to controls: 0 for no effect and ±100 for the full control effect; potency is read from the fitted curve at half-maximal effect.

Compound | lipid storage change, negative = inhibition | Potency
COC(=O)Cn1cc(C(=O)c2ccco2)c2ccccc21 | inconclusive: 55.6% | –
O=C(Nc1cccnc1)C1CCN(S(=O)(=O)c2cccs2)CC1 | inconclusive: 31.8% | –
COc1cc(/C=N/NC(=O)c2ccc(NS(=O)(=O)c3cccs3)cc2)cc(OC)c1O | inconclusive: 4.63% | –
c1csc(Cn2c(-c3cccs3)nc3ccccc32)c1 | inconclusive: -3.36% | –
O=C(COC(=O)c1ccc2c(c1)C(=O)N(CCc1ccccc1)C2=O)Nc1ccc(OC(F)F)cc1 | inconclusive: 1.75% | –
CC(=O)c1cc(F)c(N2CCCC2)cc1C | – | inconclusive: 6.51 µM [activator, single point]
O=C(COC(=O)CNC(=O)c1ccccc1F)Nc1cccc(S(=O)(=O)N2CCCCCC2)c1 | – | inconclusive: 29.1 µM [rising, single point]
COc1ccc(N2CC(C)Cn3c2nc2c3c(=O)n(CCc3ccccc3)c(=O)n2C)cc1 (centres undefined) | inconclusive: -0.351% | –
COc1ccc(Cc2[nH]n3c(=O)cc(C(C)C)nc3c2-c2ccccc2)cc1 | inconclusive: -69.8% | –
O=C(Nc1ccnn1C1CCN(C/C=C/c2ccccc2)CC1)c1ccccc1Cl | – | inconclusive: 3.66 µM [activator, partial curve]
O=C1NC(=O)/C(=C/c2ccc(-c3cccc([N+](=O)[O-])c3)o2)S1 | – | inconclusive: 20.6 µM [falling, single point]
O=C(Nc1ncc([N+](=O)[O-])s1)C1CC(=O)N(c2ccc(F)cc2)C1 (centres undefined) | inconclusive: 13.4% | –
O=C(COc1ccc(Br)cc1)N/N=C1\SCC(=O)N1c1ccc(F)cc1 | – | inconclusive: 20.6 µM [activator, partial curve, poor fit]
Cc1nn(C(C)C(=O)NC(C)CCc2ccccc2)c(=O)c2cc3occc3n12 (centres undefined) | – | inconclusive: 0.58 µM [activator, single point]
Cc1cc(C)c(Cn2c3ccccc3c3cnn(CC(=O)NCc4ccccn4)c(=O)c32)c(C)c1 | – | active: 14.6 µM
CS(=O)(=O)CCC(C(=O)OCC(=O)c1ccc(Cl)cc1)N1C(=O)c2ccccc2C1=O (centres undefined) | inconclusive: 8.05% | –
CCOC(=O)Cc1csc(NC(=O)c2ccc(S(=O)(=O)N3CCCC3)cc2)n1 | inconclusive: 43.9% | –
CCOC(=O)c1sc2c(c1C)c(=O)n(Cc1ccccc1)c(=O)n2CCN(C)C | inconclusive: 12.1% | –
Cc1cc(Cc2ccc([N+](=O)[O-])cc2)c(C)cn1 | – | inconclusive: 14.6 µM [activator, partial curve, poor fit]
CCOC(=O)N1CCC(NC(=O)CCN2C(=O)C3C4C=CC(C4)C3C2=O)CC1 (centres undefined) | inconclusive: -2.21% | –
COc1c2ccoc2nc2c(OC)c(OC[C@@H](O)C(C)(C)O)ccc12 | – | inconclusive: 0.259 µM [activator, full curve, poor fit]
CCOc1ccc(NC(=O)CN(C)C(=O)c2sccc2-c2ccccc2)cc1OCC | inconclusive: 35.4% [at 0.0737 µM] | –
CCOC(=O)Cn1c(=O)oc2ccc(C)cc21 | inconclusive: -40.5% | –
COc1ccc(C2C(C#N)=C(N)Oc3cc(O)ccc32)cc1OC (centres undefined) | inconclusive: 5.69% | –

Compound | lipid storage change, negative = inhibition | Potency
CSc1ccc(COC(=O)c2cc([N+](=O)[O-])ccc2N2CCOCC2)cc1 | – | inconclusive: 0.291 µM [falling, full curve, poor fit]
O=S(=O)(c1ccccc1)N1N=C(c2ccc(Cl)cc2)CC1c1ccco1 (centres undefined) | inconclusive | –
O=C(c1cc2ccccc2o1)N1CCN(c2cccc(C(F)(F)F)c2)CC1 | inconclusive: -100% | –
COc1ccccc1NC(=O)NCCc1c[nH]c2ccccc12 | inconclusive: -0.745% | –
CC(=O)N1CCN=C1SCc1ccc(C(F)(F)F)cc1 | – | inconclusive: 29.1 µM [activator, single point]
CC(C)(C)OC(=O)N1CCC(c2c(C(=O)NC3CC3)cnn2-c2ccc(Cl)cc2)CC1 | inconclusive: 74.2% | –
O=C(C1CCN(Cc2ccc(F)cc2)CC1)N(CCO)Cc1ccccc1 | inconclusive: -57.4% | –
O=C(c1ccco1)c1cn[nH]c1-c1ccc(Cl)cc1O | inconclusive: -62.6% | –
COc1ccccc1NC(=O)c1csc(-n2nc(C)cc2C(F)(F)F)n1 | inconclusive: 15% | –
O=C(CNC(=O)c1ccccc1F)N/N=C/c1cccs1 | inconclusive: -8.07% | –
O=C(Nc1nc2c(Br)cc(Br)cc2c(=O)s1)c1ccco1 | inconclusive: -32.1% | –
COc1ccccc1N1CCN(S(=O)(=O)CCNC(=O)C2CC2)CC1 | – | inconclusive: 0.0731 µM [activator, full curve, poor fit]
CCOc1cccc2sc(N(CCCN(C)C)C(=O)c3ccc(S(=O)(=O)N4CCCCCC4)cc3)nc12 | inconclusive: -22.6% | –
CC1CCc2c(C(=O)NCc3ccccn3)csc2C1 (centres undefined) | inconclusive: 16.8% | –
COc1ccc(C(=O)NCCCc2ccccc2)cc1OC | inactive: 2.62% | –
COc1cccc(-n2c(=O)[nH]cc(C(=O)Nc3ccc(NC(C)=O)cc3)c2=O)c1 | inconclusive: -8.97% | –
COc1cnc(-c2ccccc2)nc1Oc1ccc(Cl)cc1C | inconclusive: -0.0078% | –
CCC(C(=O)OCC(=O)c1ccc2c(c1)NC(=O)CO2)c1ccccc1 (centres undefined) | inconclusive: 9.2% | –
Cc1cc(C(=O)Nc2cccnc2Cl)on1 | inconclusive: -34.8% | –
Cc1cc(C)c(S(=O)(=O)NCC(=O)NCc2cc(=O)n(C)c(=O)n2C)c(C)c1 | – | inconclusive: 32.6 µM [falling, single point]
COc1ccc2cc(OCC(=O)NNC(=O)Nc3ccc(F)cc3)ccc2c1 | – | inconclusive: 0.58 µM [activator, full curve]
COc1ccc(C(=O)N2CCSCC2)cc1OC1CCN(C(C)=O)CC1 | inconclusive: -19.7% | –
CCNC(=S)NNC(=O)c1csc(C)c1 | inconclusive: 9.61% | –
O=C(Nc1ccc2c(c1)OCO2)C1CCCCN1S(=O)(=O)c1ccc(F)cc1 (centres undefined) | inconclusive: -2.2% | –

Part of the list above in order of molecular weight, high to low.
Compound | lipid storage change, negative = inhibition | Potency
CCOc1cccc2sc(N(CCCN(C)C)C(=O)c3ccc(S(=O)(=O)N4CCCCCC4)cc3)nc12 | inconclusive: -22.6% | –
CSc1ccc(COC(=O)c2cc([N+](=O)[O-])ccc2N2CCOCC2)cc1 | – | inconclusive: 0.291 µM [falling, full curve, poor fit]
COc1ccccc1NC(=O)NCCc1c[nH]c2ccccc12 | inconclusive: -0.745% | –
Cc1cc(C(=O)Nc2cccnc2Cl)on1 | inconclusive: -34.8% | –
